Our source for the binding values is paper PMC12278352, “Characterization of DnaB–DnaG Interaction in M. tuberculosis Using Small‐Angle X‐ray Scattering‐Based Dissociation Assay” (Chembiochem, 2025).

This assay deals with primase domain of gene 4 protein (gp4) from bacteriophage T7 (residues 1–271) (bacteriophage T7) (UniProt P03692). As to the kind of experiment: condition: only in the absence of ATP/CTP, RNA, and Mg2+ (2, 4 and 8 mg/mL); SAXS; T7 primase alone, without ATP/CTP, RNA and Mg2+, at 2, 4 and 8 mg/mL; 20 mM Tris-HCl pH 7.5, 1 mM DTT; 4 °C; Rg against protein concentration; both purified.

These are yes or no findings as the source states them, for the method shown.

B1: primase domain of gene 4 protein (gp4) from bacteriophage T7 (residues 1–271) (domain or fragment, UniProt P03692 1-271, looked up)
chain: MDNSHDSDSVFLYHIPCDNCGSSDGNSLFSDGHTFCYVCEKWTAGNEDTKERASKRKPSGGKPMTYNVWNFGESNGRYSALTARGISKETCQKAGYWIAKVDGVMYQVADYRDQNGNIVSQKVRDKDKNFKTTGSHKSDALFGKHLWNGGKKIVVTEGEIDMLTVMELQDCKYPVVSLGHGASAAKKTCAANYEYFDQFEQIILMFDMDEAGRKAVEEAAQVLPAGKVRVAVLPCKDANECHLNGHDREIMEQVWNAGPWIPDGVVSALSL
notes: primase domain of gene 4 protein (gp4), bacteriophage T7, residues 1-271; For the NMR spectra the protein was 15N-labelled and deuterated; Monomer without cofactors, dimer with ATP/CTP, RNA and Mg2+; also called T7 primase; T7 DNA primase
On to B1, for which the binding entry is listed as “no binding”.
